Results are given in words; binding and its absence hold for the method and conditions named. Binding seen in cells or lysates may run through a third protein. A yes stands for co-enrichment or nearness to the bait. Other partners may have been found.

Protein sequences, listed by entry. Tags and fused reporters are not part of them.
UniProt Q8BWG8: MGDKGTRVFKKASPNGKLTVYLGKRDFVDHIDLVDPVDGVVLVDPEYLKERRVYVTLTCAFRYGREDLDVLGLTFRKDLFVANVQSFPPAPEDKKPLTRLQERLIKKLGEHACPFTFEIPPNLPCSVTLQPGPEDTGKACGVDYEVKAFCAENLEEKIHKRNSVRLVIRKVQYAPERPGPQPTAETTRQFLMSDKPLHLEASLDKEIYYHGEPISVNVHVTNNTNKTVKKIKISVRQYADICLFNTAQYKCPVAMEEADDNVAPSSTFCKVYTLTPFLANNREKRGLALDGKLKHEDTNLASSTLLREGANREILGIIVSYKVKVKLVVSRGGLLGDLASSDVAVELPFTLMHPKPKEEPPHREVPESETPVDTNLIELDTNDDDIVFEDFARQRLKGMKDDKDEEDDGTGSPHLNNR
UniProt Q8K1M6: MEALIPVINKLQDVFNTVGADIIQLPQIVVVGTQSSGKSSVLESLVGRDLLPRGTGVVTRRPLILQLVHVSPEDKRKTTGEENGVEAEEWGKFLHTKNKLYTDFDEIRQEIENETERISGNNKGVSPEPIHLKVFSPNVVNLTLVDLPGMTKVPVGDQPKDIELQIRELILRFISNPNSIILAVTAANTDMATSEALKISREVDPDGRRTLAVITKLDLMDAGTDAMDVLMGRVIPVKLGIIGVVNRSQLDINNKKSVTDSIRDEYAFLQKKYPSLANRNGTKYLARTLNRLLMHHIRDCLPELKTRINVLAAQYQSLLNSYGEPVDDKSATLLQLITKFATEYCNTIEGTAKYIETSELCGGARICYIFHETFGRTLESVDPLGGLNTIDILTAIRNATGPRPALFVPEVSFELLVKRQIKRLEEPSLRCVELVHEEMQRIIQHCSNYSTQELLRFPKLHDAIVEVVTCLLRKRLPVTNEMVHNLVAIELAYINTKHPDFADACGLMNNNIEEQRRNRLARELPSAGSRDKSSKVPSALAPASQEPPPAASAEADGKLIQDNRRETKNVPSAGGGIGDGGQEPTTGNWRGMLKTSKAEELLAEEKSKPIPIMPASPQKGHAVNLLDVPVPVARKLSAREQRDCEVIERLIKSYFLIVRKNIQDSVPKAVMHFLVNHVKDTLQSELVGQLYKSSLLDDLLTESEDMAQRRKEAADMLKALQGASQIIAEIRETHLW

The target in this experiment is β-arrestin1 (mouse (endogenous in primary astrocytes)) (UniProt Q8BWG8). The experiment in a line: affinity purification with mass spectrometry; β-arrestin1 pulled down, bound proteins detected by label-free mass spectrometry; source of the sample not stated.

For the substance “dynamin-related protein 1 (Drp1) (from UniProt Q8K1M6 1-736)”, the binding entry was “binds”.
